The text below walks through data of US20130096072A1 (Genentech, published 2013).

Protein sequences, listed by entry. Tags and fused reporters are not part of them. Lines headed by an entry give the natural chain unless they say otherwise; changes in a name come on top.
UniProt P14210: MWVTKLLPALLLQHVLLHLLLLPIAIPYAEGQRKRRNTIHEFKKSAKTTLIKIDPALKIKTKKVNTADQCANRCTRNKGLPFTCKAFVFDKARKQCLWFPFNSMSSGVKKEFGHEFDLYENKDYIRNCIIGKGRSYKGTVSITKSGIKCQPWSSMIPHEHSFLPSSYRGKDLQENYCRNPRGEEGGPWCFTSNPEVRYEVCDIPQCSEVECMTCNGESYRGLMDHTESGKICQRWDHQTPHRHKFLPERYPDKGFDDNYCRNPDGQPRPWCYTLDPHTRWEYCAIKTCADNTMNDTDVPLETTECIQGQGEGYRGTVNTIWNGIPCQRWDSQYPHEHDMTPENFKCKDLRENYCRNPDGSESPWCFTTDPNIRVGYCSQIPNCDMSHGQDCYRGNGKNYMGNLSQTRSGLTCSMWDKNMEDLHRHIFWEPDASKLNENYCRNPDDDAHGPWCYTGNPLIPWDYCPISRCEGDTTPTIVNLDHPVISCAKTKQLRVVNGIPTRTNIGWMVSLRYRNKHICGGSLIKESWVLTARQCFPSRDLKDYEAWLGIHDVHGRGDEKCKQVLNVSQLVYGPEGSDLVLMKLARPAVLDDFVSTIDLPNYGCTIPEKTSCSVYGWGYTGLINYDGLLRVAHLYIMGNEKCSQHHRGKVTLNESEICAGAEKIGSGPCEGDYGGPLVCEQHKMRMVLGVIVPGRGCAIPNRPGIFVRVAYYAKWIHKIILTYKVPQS

These are yes or no findings as the source states them, for the method shown. Some binding calls cover weakened binding; strength is not graded here.

In assay [1] the target is scHGF β-chain (zymogen-like HGF β, residues Asn479 to Ser728, R494E, C-terminal His-tag) (human) (UniProt P14210). Nature of the assay: activity-based phage sorting: library with 0.5 µM scHGF β in solution, complex captured on a Met Sema-PSI coated plate; the clones as a group are plotted in FIG. 9B.
Assay [2] concerns the target HGF β V495G (human) (UniProt P14210). Nature of the assay: X-ray crystal structure (FIG. 8).
For assay [3] the target is unchanged. Nature of the assay: X-ray crystal structure of the ternary complex.
The target is the same in assay [4]. Briefly: X-ray crystal structure (FIG. 13).
Assay [5] has as its target scHGF β-chain (zymogen-like HGF β, residues Asn479 to Ser728, R494E, C-terminal His-tag) (human) (UniProt P14210). Briefly: BLI scHGF β activation/Met binding assay.
Assay [6] has the same target. Briefly: biolayer interferometry: biotinylated Met Sema/PSI on streptavidin tips, 0.5 µM scHGF β in solution, peptide titrated; steady-state surface response of scHGF β binding to Met. For orientation: BLI is a label-free optical method that tracks binding on a fibre tip over time.

On to IVGGCPYWMDREECL [ZAP.11], for which the binding result in assay [1] is “binds”.
With IVGGYPWWMDV (C-terminal amide) [IVGG.14 peptide], the binding entry with HGF β V495G (human) [2] and in the assay with HGF β V495G (human) [3] was “binds” in each case.
Turning to IIGGDPWWTPHPSFV [ZAP.30], the binding entry in assay [1] is listed as “binds”.
Take IIGGDPVWDITYTYA [ZAP.13]: in assay [1], the binding entry is given as “binds”.
On the same count and under the same terms, then IIGGDPYWYPHPGTV [ZAP.04], with “binds”.
In the case of IIGGCPYWMDREECI (intramolecular disulfide bond between Cys-5 and Cys-14; C-terminal amide) [ZAP.03 (cyclic 15-mer synthetic peptide)], the binding entry with HGF β V495G (human) [4] and in the assay with HGF β V495G (human) [3] was “binds” throughout.
As for IVGGDPWWVDHMYLT [ZAP.86], the binding result in assay [1] was “binds”.
In the case of IVDGYPWWMDV (D-aspartic acid at position 3; C-terminal amide) [IVdG.14 peptide], the binding entry in assay [5] and in assay [6] was “binds” each time.
Turning to IVGGDPYWVPHPGDA [ZAP.01], the binding result in assay [1] is given as “binds”.
